Results from publication PMC12670160, “A drug-repurposing screen of FDA- and EMA-approved drugs identifies two NF-κB inhibitors active against eumycetoma” (Journal of Antimicrobial Chemotherapy, 2025).
Structures can show the parent of a compound that is named as a salt. Where two headings read alike, the source gives them in different places. Hit rate of the full screen: of about 5,300 compounds, about 130 (2.5%) showed an effect of 50% or more. Some of the results follow.

System: M. mycetomatis strain mm55
Settings: primary screen, metabolic activity vs growth control, 96 h, 2 µM, inhibitor

SMILES	% viability	% viability (Madurella mycetomatis metabolic activity at 2µM (%))
CC(C)(S)C(=O)N[C@@H](CS)C(=O)O [ONC0003276, bucillamine]	45.36%	–
O=C(O)CCCNC(=O)c1cccnc1 [ONC0003758, pikamilone]	120.3%	–
CC1=C(C(=O)Nc2cc3cn[nH]c3cc2F)C(c2ccc(C(F)(F)F)cc2)CC(=O)N1 (stereo not shown) [ONC0004890, gsk429286a]	115.5%	–
CNC(=O)c1ccccc1Nc1nc(Nc2ccc(N3CCOCC3)cc2OC)ncc1Cl [ONC0005255, nvptae226]	135.1%	–
CCOc1cc(CC(=O)N[C@@H](CC(C)C)c2ccccc2N2CCCCC2)ccc1C(=O)O [ONC0005405, repaglinide]	79.78%	–
Cc1cc(C)c2nc(-c3ccccn3)cc(C(=O)Nc3ccc(S(=O)(=O)Nc4onc(C)c4C)cc3)c2c1 [ONC0000413, ml193]	52.65%	–
C[C@@H]1C(=O)O[C@H]2[C@H](O)C34[C@H]5C[C@@H](C(C)(C)C)[C@]36[C@@H](OC(=O)[C@@H]6O)O[C@@]4(C(=O)O5)[C@@]12O (stereo partly shown) [ONC0001626, ginkgolideb]	80.27%	–
COc1ccc(-c2cnc3c(-c4cccc5ncccc45)cnn3c2)cc1 [ONC0002277, chr6494]	–	84.04%
CCOC(=O)C1=C(C)NC(C)=C(C(=O)OCC)C1c1ccccc1/C=C/C(=O)OC(C)(C)C [ONC0004923, lacidipine lacipil motens]	105.2%	–
CCc1ccc(Cc2ccc3c(c2)[C@]2(OC3)O[C@H](CO)[C@@H](O)[C@H](O)[C@H]2O)cc1 [ONC0000886, tofogliflozin hydrate]	64.04%	–
Cc1cc(C(=O)Nc2nc3cccc(Cl)c3n2[C@@H]2CCCCN(C(=O)/C=C/CN(C)C)C2)ccn1 [ONC0001107, nazartinib]	39.34%	–
O=S(=O)(c1ccccc1)N(CC(F)(F)F)c1ccc(C(O)(C(F)(F)F)C(F)(F)F)cc1 [ONC0001352, t0901317]	94.19%	–
COc1cc(S(C)(=O)=O)ccc1Nc1nc2ccc(-c3ccc(NC(=O)[C@H](C)c4ccc(F)cc4)cc3)cn2n1 [ONC0000808, empesertib]	78.03%	–
C[C@H](NC[C@H](O)CP(=O)(O)CC1CCCCC1)c1ccc(Cl)c(Cl)c1 [ONC0000010, cgp54626]	100%	–
CN[C@@H]1[C@@H](O)[C@@H](O[C@@H]2[C@@H](O)[C@H](O[C@H]3O[C@H](CN)[C@@H](O)[C@H](O)[C@H]3O)[C@@H](N)C[C@H]2NC(=O)[C@@H](O)CN)OC[C@]1(C)O [ONC0004760, isepamicin sulphate]	106.1%	–
O=C(O)C(Cc1ccccc1)CN(O)C(=O)Cc1ccccc1 (stereo not shown) [ONC0005512, cpa inhibitor]	134%	–
COc1cccc([C@H](O)C2CCN(CCc3ccc(F)cc3)CC2)c1OC [ONC0003821, volinanserin]	55.98%	–
COc1cc(F)c(F)c(Nc2ccc(I)cc2F)c1NS(=O)(=O)C1(C[C@H](O)CO)CC1 [ONC0005631, refametinib]	80.67%	–
O=C(O)c1ccc(OCCn2ccnc2)cc1 [ONC0003331, dazoxiben]	112.5%	–
C#C[C@]1(O)CC[C@H]2[C@@H]3CCc4cc(O)ccc4[C@H]3CC[C@@]21C [ONC0000739, ethinyl estradiol]	92.75%	–
CCCCN(CCCC)CCC(O)c1cc2c(Cl)cc(Cl)cc2c2cc(C(F)(F)F)ccc12 (stereo not shown) [ONC0003518, halofantrinehcl]	46.17%	–

SMILES	% viability	% viability (Madurella mycetomatis metabolic activity at 2µM (%))
CS(=O)(=O)N1CCN(Cc2cc3nc(-c4cccc5[nH]ncc45)nc(N4CCOCC4)c3s2)CC1 [ONC0004658, pictilisib gdc0941]	69.9%	–
CC(C)NCC(O)c1ccc(O)c(O)c1 (stereo not shown) [ONC0000608, isoproterenol hydrochloride]	81.88%	–
Cc1cc(N2CCOCC2)cc2[nH]c(-c3c(NC[C@@H](O)c4cccc(Cl)c4)cc[nH]c3=O)nc12 [ONC0000809, bms536924]	85.16%	–
COC(=O)Nc1nc2ccc([S+]([O-])c3ccccc3)cc2[nH]1 (stereo not shown) [ONC0004180, oxfendazole]	72.44%	–
CC(C)(C)NC(=O)[C@@H]1C[C@@H]2CCCC[C@@H]2CN1C[C@@H](O)[C@H](Cc1ccccc1)NC(=O)[C@H](CC(N)=O)NC(=O)c1ccc2ccccc2n1 [ONC0003473, saquinavir mesylate]	64.63%	–
CO[C@@H](C(=O)N1Cc2n[nH]c(NC(=O)c3ccc(N4CCN(C)CC4)cc3)c2C1)c1ccccc1 [ONC0004749, danusertib pha739358]	112.5%	–
Oc1ccc(-c2c(-c3ccccc3)nn3c(C(F)(F)F)cc(C(F)(F)F)nc23)cc1 [ONC0001317, phtpp]	86.47%	–
COc1ccc(S(=O)(=O)Nc2c(C)cc(C)cc2C)cc1 [ONC0003048, gsk37647]	110.6%	–
Nc1nc2c(ncn2COCCO)c(=O)[nH]1 [ONC0002439, acyclovir]	82.13%	–
CC(C)(CCCCCC(O)CCCCCC(C)(C)C(=O)O)C(=O)O [ONC0002532, etc1002]	66.69%	–
O=C(O)Cn1c2c(c3cc(F)ccc31)CN(C(=O)c1cccc3ccccc13)CC2 [ONC0001062, setipiprant]	62.06%	–
O=C(c1ccc2c(c1)OCO2)N1CCCCC1 [ONC0004313, cx516]	122.2%	–
Cc1ccccc1C(=O)c1ccc(Nc2ccc(Br)cc2N)cc1Cl [ONC0003160, eo1428]	75.19%	–
CCCCOC(=O)c1ccccc1Nc1cccc(C(F)(F)F)c1 [ONC0000312, ufenamate]	75.77%	–
CC1(C)CCC[C@]2(C)[C@H]3CC(=O)O[C@]3(C)CC[C@@H]12 [ONC0004742, sclareolide norambreinolide]	126.3%	–
COc1ccc(C(=O)c2ccccc2)c(O)c1 [ONC0000578, 2hydroxy4methoxybenzophenone]	73.27%	–
COc1c(N2C[C@@H]3CCCN[C@@H]3C2)c(F)cc2c(=O)c(C(=O)O)cn(C3CC3)c12 [ONC0004240, moxifloxacin hydrochloride]	59.73%	–
O=C(Oc1ccccc1)c1ccccc1O [ONC0003738, phenylsalicylate]	110.3%	–
c1ccc(C(O[C@@H]2CCCN(CCc3ccc4c(c3)OCO4)C2)c2ccccc2)cc1 [ONC0003094, zamifenacin]	77.83%	–
CC1C[C@H]2[C@@H]3CCC4=CC(=O)C=C[C@]4(C)[C@@]3(Cl)[C@@H](O)C[C@]2(C)[C@@]1(O)C(=O)CO (stereo partly shown) [ONC0000301, beclomethasone]	73.26%	–
Nc1nc2cc(-c3ccc4ncc(C(=O)N5CCOCC5)n4c3)ccc2o1 [ONC0002420, serabelisib]	110%	–

SMILES	% viability	% viability (Madurella mycetomatis metabolic activity at 2µM (%))
CC(=O)OCC(=O)[C@@]1(O)[C@H](C)C[C@H]2[C@@H]3CCC4=CC(=O)C=C[C@]4(C)[C@@]3(F)[C@@H](O)C[C@@]21C [ONC0000405, dexamethasone acetate]	56.97%	–
COc1ncnc(NS(=O)(=O)c2ccc(N)cc2)c1OC [ONC0005402, sulfadoxine]	115.4%	–
OC[C@H]1O[C@@H](n2cnc3c(N[C@H]4CCC[C@@H]4O)ncnc32)[C@H](O)[C@@H]1O [ONC0001633, gr79236]	111%	–
NS(=O)(=O)c1cc2c(cc1C(F)(F)F)NCNS2(=O)=O [ONC0000565, hydroflumethiazide]	64.98%	–
Cc1ncc(-c2ccnc(Nc3ccc(S(C)(=O)=O)cc3)n2)n1C(C)C [ONC0004311, azd5438]	78.2%	–
COC1(C2=NCCN2)COc2ccccc2O1 (stereo not shown) [ONC0001691, rx821002]	76.36%	–
C#Cc1cnc2nc(O)n(C(CC)CC)c2n1 [ONC0001165, tirasemtiv]	102.8%	–
NC(=O)CCCCC1CCSS1 (stereo not shown) [ONC0004048, lipoamide]	65.99%	–
CCCCCCCC/C=C\CCCCCCCC(N)=O [ONC0000742, oleamide]	75.94%	–
COc1ccccc1N1CCN(CCCCNC(=O)c2ccc(-c3ccc(C(C)=O)cc3)cc2)CC1 [ONC0003432, gr 103691]	60.78%	–
N[C@@H](Cc1c[nH]c2ccccc12)C(=O)O [ONC0003218, tryptophan l]	86.81%	–
O=C(OOC(=O)c1ccccc1)c1ccccc1 [ONC0003111, benzoyl peroxide]	80.87%	–
O=C(O)c1nc(=O)[nH]c(=O)[nH]1 [ONC0003278, oxonic acid potassium salt]	68.48%	–
NCCCC[C@H](N)C(=O)O [ONC0002175, llysine]	93.09%	–
CC(O)Cn1cnc2c1c(=O)n(C)c(=O)n2C (stereo not shown) [ONC0003979, proxyphylline]	87.7%	–
CCCCCCCCCC(=O)OC1(c2ccc(Cl)cc2)CCN(CCCC(=O)c2ccc(F)cc2)CC1 [ONC0001977, haloperidoldecanoate]	86.06%	–
CN1CC[C@@H](NC(=O)Nc2ccc(C#N)cc2)C[C@@H]1c1nc2ccccc2[nH]1 [ONC0001162, glasdegib]	66.04%	–
OCc1c[nH]c2ccccc12 [ONC0002801, indole3carbinol]	98.39%	–
Cc1ccc(C(=O)Nc2ccc(Oc3cc4cnn(C)c4cc3-c3cn[nH]c3)c(F)c2)c(=O)n1-c1ccc(F)cc1 [ONC0002048, merestinib]	73.93%	–

Entries of single compounds, quoted from the list:
Cc1cc(N2CCOCC2)cc2[nH]c(-c3c(NC[C@@H](O)c4cccc(Cl)c4)cc[nH]c3=O)nc12 [ONC0000809, bms536924] is listed as % viability: 85.16%
COc1ccc(S(=O)(=O)Nc2c(C)cc(C)cc2C)cc1 [ONC0003048, gsk37647] is listed as % viability: 110.6%
CS(=O)(=O)N1CCN(Cc2cc3nc(-c4cccc5[nH]ncc45)nc(N4CCOCC4)c3s2)CC1 [ONC0004658, pictilisib gdc0941] is listed as % viability: 69.9%
C#Cc1cnc2nc(O)n(C(CC)CC)c2n1 [ONC0001165, tirasemtiv] is listed as % viability: 102.8%
